Experimental findings from paper PMC10406618 are described below.

By UniProt entry, the sequences of proteins in these tests, tags left out.
UniProt P09874: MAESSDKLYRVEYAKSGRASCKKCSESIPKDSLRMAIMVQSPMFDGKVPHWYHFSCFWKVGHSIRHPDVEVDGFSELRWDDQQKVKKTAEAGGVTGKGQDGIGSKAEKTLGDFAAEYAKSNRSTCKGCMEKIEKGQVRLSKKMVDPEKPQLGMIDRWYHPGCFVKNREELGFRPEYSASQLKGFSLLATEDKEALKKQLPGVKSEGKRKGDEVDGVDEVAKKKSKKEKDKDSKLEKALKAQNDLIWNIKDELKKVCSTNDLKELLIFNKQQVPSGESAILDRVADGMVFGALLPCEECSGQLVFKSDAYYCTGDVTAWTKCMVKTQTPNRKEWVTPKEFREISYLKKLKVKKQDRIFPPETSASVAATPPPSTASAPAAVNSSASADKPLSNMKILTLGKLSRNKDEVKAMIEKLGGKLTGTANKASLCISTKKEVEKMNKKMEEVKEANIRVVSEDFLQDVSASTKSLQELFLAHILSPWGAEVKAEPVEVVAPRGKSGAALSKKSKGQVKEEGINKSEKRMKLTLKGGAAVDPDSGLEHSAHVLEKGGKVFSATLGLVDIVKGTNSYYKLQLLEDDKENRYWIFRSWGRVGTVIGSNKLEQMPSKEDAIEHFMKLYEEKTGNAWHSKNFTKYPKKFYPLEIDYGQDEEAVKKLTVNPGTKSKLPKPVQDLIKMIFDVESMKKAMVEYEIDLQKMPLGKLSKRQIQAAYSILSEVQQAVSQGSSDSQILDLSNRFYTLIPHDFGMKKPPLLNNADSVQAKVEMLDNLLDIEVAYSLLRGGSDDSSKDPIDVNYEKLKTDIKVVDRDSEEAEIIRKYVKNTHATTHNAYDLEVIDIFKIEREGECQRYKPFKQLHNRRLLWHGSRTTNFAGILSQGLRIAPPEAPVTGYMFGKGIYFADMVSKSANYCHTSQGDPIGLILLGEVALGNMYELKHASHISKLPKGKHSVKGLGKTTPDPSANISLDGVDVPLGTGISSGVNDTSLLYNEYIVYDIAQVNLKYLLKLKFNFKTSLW

No constants are given. Whether binding was seen depends on the method and setting. Binding seen in cells or lysates may run through a third protein. Some binding calls cover weakened binding; strength is not graded here.

Experiment [1] concerns the target poly (ADP-ribose) polymerase 1 (PARP1), endogenous (human (endogenous in Huh7)) (UniProt P09874). Description: co-sedimentation; sucrose gradient fractionation of Huh7 cell extracts (NETN buffer, 36,000 rpm 3 h 4 °C, SW41 rotor), fractions blotted; with or without 3 Gy irradiation and PC4 knock-down.
Experiment [2] has the same target. Description: co-IP; endogenous proteins; lysates of Huh7, HepG2, HeLa or HEK293T cells in IP lysis buffer (50 mM Tris-HCl pH 7.5, 150 mM NaCl, 1 mM EDTA, 1 mM EGTA, 5 mM MgCl2, 10% glycerol, 0.2% NP-40), antibody 4 h at 4 °C, Protein A/G beads; with or without 3 Gy irradiation, benzonase, PARG inhibitor PDD00017273 (10 μM), PC4 knock-down.

Take “XRCC5 (Ku80), endogenous (from UniProt P13010 1-732)”: the binding result in experiment [1] and in experiment [2] was “binds” each time.
